# Experimental data as given in publication PMC12040169 (PLOS Biology, 2025).
# The list shows a part of the results.
# System: T1, CTL2-GFP (C. trachomatis L2/434/Bu, GFP-expressing)
# T1 construct: L2/434/Bu, GFP-expressing
# Parameters: species or system HeLa; Intracellular C. trachomatis growth in HeLa cells, bulk GFP fluorescence relative to DMSO
# Settings: bulk GFP, single well; 28.5 h, 10 µM; inhibitor
row,Compound,% of control remaining [%]
1,NC1CCCN(C(=O)c2ccc(Oc3cccc(Br)c3)nc2)C1 (centres unmarked) [CBK304747],80.6031
2,Cc1cc(C2CCCCCN2C(=O)c2cc(C(C)C)on2)on1 (centres unmarked) [CBK281733],154.724
3,CS(=O)(=O)N1CC2(CCN(C(=O)[C@@H](N)COCc3ccccc3)CC2)c2ccccc21 [CBK022597C],93.5536
4,COCCn1cc(C(=O)N2CCOC3CCCCC32)c2ccccc21 (centres unmarked) [CBK305288],120.747
5,COc1ccc(Cc2nc3ccccc3n2CCc2ccccc2)cc1 [CBK266385],122.774
6,CSc1nc2ccc(Nc3cc(C)nc4ncnn34)cc2s1 [CBK297724],106.196
7,O=C(COCc1nc2ccccc2[nH]1)N1CCC(c2ccccc2)C1 (centres unmarked) [CBK281840],169.205
8,Cc1nc2sccn2c1-c1csc(Nc2cccc(C(=O)O)c2)n1 [CBK263291B],108.722
9,CN(C)c1ccc(-c2[nH][nH]c(=O)c2CCCN)cc1 [CBK288406],119.771
10,CCCCc1ccc(NC(=S)NC(=O)c2ccc(OC)c(OC)c2)cc1 [CBK157691],104.945
11,O=C(NC1Cc2ccccc2C1)c1cscn1 [CBK200363],109.895
12,CS(=O)(=O)c1ccc(CNC(=O)c2ccccc2Nc2cccc(C(F)(F)F)c2)cc1 [CBK149580],102.886
13,COc1cccc(C(=O)N2CCN(C)C(=O)C2Cc2ccccc2-c2ccccc2)c1OC (centres unmarked) [CBK285828],105.713
14,CSCCCN1C(=O)CN(Cc2ccccc2)C1=O [CBK162363],83.0106
15,COc1ccc([C@@]23CC[C@H](NC(=O)CS(=O)(=O)c4ccccc4)C[C@@H]2N(C)CC3)cc1OC [CBK036445],147.03
16,COCc1cc(C)n(CC(=O)Nc2ccc(N3CCOCC3)cc2)c(=O)c1C#N [CBK270190],136.329
17,O=C(O)c1ccc(CNC(=O)c2ccc3c(c2)C(=O)N(CC2CCCO2)C3=O)cc1 (centres unmarked) [CBK264256],125.433
18,Cc1ccc2c(c1)CCN(S(C)(=O)=O)C21CCN(CCCOc2ccccc2)CC1 [CBK081066],100
19,COc1cnc(-c2cccc(C(=O)N(C)C)c2)c(NC(=O)c2ccccc2)n1 [CBK145385],104.325
20,Cc1ccc(NC(=O)c2cnc3sc(C)cn3c2=O)cc1 [CBK287711],116.471
21,CC(NC(=O)C1CCN(CCn2cnc3c2c(=O)n(C)c(=O)n3C)CC1)c1ccccc1 (centres unmarked) [CBK148624],151.383
22,CC1Oc2ccccc2OC1C(=O)Nc1ccc([N+](=O)[O-])cc1Cl (centres unmarked) [CBK269412],108.885
23,O=C(NCCN1CCCC1)c1ccc(N2CCN(C(=O)c3ccccc3C(F)(F)F)CC2)nn1 [CBK153217],124.451
24,COc1cc2c(cc1-c1cn(CCN3CCCOC3=O)nn1)CCC2 [CBK306515],105.027
25,Cc1cc(C)n(CC(C)CNC(=O)Cc2csc(C(C)(C)C)n2)n1 (centres unmarked) [CBK305340],104.908
26,CCNC1(Cc2cc(C(=O)N3CCCCC3)on2)COC1 [CBK289671],142.398

# Single values from the list:
# Under % of control remaining [%], COCCn1cc(C(=O)N2CCOC3CCCCC32)c2ccccc21 (centres unmarked) [CBK305288] is entered as 120.747
# Under % of control remaining [%], CC1Oc2ccccc2OC1C(=O)Nc1ccc([N+](=O)[O-])cc1Cl (centres unmarked) [CBK269412] is entered as 108.885
# Under % of control remaining [%], Cc1cc(C2CCCCCN2C(=O)c2cc(C(C)C)on2)on1 (centres unmarked) [CBK281733] is entered as 154.724

# The results go on:

row,Compound,% of control remaining [%]
1,COc1cc(/C=N\Nc2nnc3c(n2)[nH]c2c(C)cccc23)cc(Br)c1O [CBK262375],112.785
2,COc1ccccc1OCc1ccc(C(=O)N2CCN(c3cccc(C(F)(F)F)c3)CC2)o1 [CBK074417],45.3655
3,CN(C)CCN(C)[C@H]1CCCC[C@@H]1N(C)C(=O)Cc1ccc(Br)cc1 [CBK023819C],64.4125
4,COc1ccc(OCCNC(=O)C2(c3ccc(OC)cc3)CC2)cc1 [CBK149821],163.2
5,Oc1c(C(Nc2cccnc2)c2ccccc2OCc2ccccc2)ccc2cccnc12 (centres unmarked) [CBK268587],50.2787
6,CCOc1ccsc1C(=O)N1CCc2ccccc2C1 [CBK200339],136.16
7,O=C(Nc1nnc(C2=COCCO2)o1)c1ccc(Cl)cc1Cl [CBK287419],135.286
8,COc1ccc(NS(=O)(=O)c2ccc(NC(=S)NC(=O)C(C)(C)C)cc2)cc1 [CBK268990],62.5534
9,CCOc1cc(C)c(-c2cc(N)[nH]n2)cc1OCC [CBK288216],143.845
10,O=C(/C=C/c1ccc([N+](=O)[O-])cc1)Nc1ccc(O)cc1C(=O)O [CBK263613],100
11,CS(=O)(=O)c1ccc(-c2c[nH]c([C@@H]3COCCN3Cc3c[nH]c4ccccc34)n2)cc1 [CBK289321],136.967
12,O=[N+]([O-])c1ccc(S(=O)(=O)NCCSCc2ccco2)cc1 [CBK267503],95.9468
13,COc1ccc(-n2cc(-c3cccc(C(F)(F)F)c3)nn2)cc1OC [CBK112933],92.6179
14,CC(=O)N1C[C@@H]2C[C@H](C1)c1ccc(NS(=O)(=O)c3cccc(F)c3)c(=O)n1C2 [CBK288710],110.016
15,Cc1ccc(-c2nc3ncccc3o2)cc1NC(=O)c1ccc(-c2cccc([N+](=O)[O-])c2)o1 [CBK268548],154.96
16,CN1C(=O)COc2ccccc2CCCC[C@@H]2[C@H]1CCCN2C(=O)CCCn1cncn1 [CBK292182],118.668
17,CC(C)(C)OC(=O)N1CCC(Oc2ccccc2C#N)C1 (centres unmarked) [CBK003039],128.714
18,O=C(c1ccc2[nH]c(=O)[nH]c2c1)N1CCCC2(CCN(Cc3ccccc3)C2)C1 (centres unmarked) [CBK137149],97.5157
19,Cc1ccc(C(=O)NCCNS(=O)(=O)c2ccccc2)cc1 [CBK264145],100
20,Cc1cc(=O)[nH]c2c1c(=O)[nH]n2C1CCCCCC1 [CBK288381],182.85
21,COCCCN1C(=O)C(O)=C(C(=O)c2ccc(C)o2)C1c1ccc(OC)cc1 (centres unmarked) [CBK264863],130.59
22,O=C(Nc1ccc(N2CCNCC2)c2ccccc12)c1cccnc1 [CBK036336T],122.777
23,COc1ccc(N2C(=O)CC(N3CCN(C4CC(=O)N(c5ccc(OC)cc5)C4=O)CC3)C2=O)cc1 (centres unmarked) [CBK260907],106.946
24,O=C1N[C@@H]2CCN(C(=O)CCn3ccccc3=O)C[C@@H]2CCCCCOc2ccccc21 [CBK292039],126.166
25,COC(=O)[C@H]1CCc2ccccc2N1C(=O)C(C)C [CBK285474],111.463
26,C[C@@H]1C[C@H](C)CN(C(C(=O)O)c2c[nH]c3ccccc23)C1 (some centres unmarked) [CBK286868],114.355

row,Compound,% of control remaining [%]
1,CCN1CCC(CC(=O)NCCn2ccnc2C)CC1 [CBK281984],78.7435
2,Cc1nnc(Nc2ccc3c(c2)nc2n3CCN(C3CCCCC3)C2)c2ccccc12 [CBK268042],149.953
3,CC(C)c1ccc(/C=C/C(=O)NCCC(N)=O)cc1 [CBK149646],112.556
4,Cc1cc(COc2ncccc2C(F)(F)F)no1 [CBK115783],107.221
5,C=CCn1c2cc(C)sc2c2cnn(CC(=O)NC(C)C)c(=O)c21 [CBK284150],135.279
6,CC(=O)Nc1ccc(NCc2csc(C3CCCO3)n2)c(C(F)(F)F)c1 (centres unmarked) [CBK304161],82.142
7,COc1ccc(NC(=O)CSc2ncnc3c2oc2ccccc23)c(OC)c1 [CBK287395],147.057
8,CC1=NN(c2ccc(Cl)cc2)C(=O)/C1=C\Nc1nnn[nH]1 [CBK262407],100
9,C(#Cc1csc(COc2cncc(N3CCNCC3)n2)c1)c1ccccc1 [CBK200006G],125.381
10,CC(=O)Nc1cccc(-c2nccnc2N[C@H](CO)C(C)C)c1 [CBK036611],155.78
11,CCC1CCCCN1C(=O)c1nc2ccccc2s1 (centres unmarked) [CBK076645],116.386
12,COc1ccc(-c2cc(C(=O)Nc3ccc(F)c(Cl)c3)cnc2-c2cccc(C)c2)cc1 [CBK037488],123.434
13,CCN1C(=O)CC2(C1=O)C(=O)N(CCc1cccs1)c1ccc(Cl)cc12 (centres unmarked) [CBK075614],132.329
14,CCCCNc1cc(N2CCN(C(=O)COC)CC2)nc(N)n1 [CBK304078],113.66
15,Fc1ccccc1COc1cccc(CNCCN2CCOCC2)c1 [CBK278148C],108.466
16,CC1CC(C)CN(Cc2csc(NC(=O)Cc3ccc(Cl)cc3)n2)C1 (centres unmarked) [CBK306142],48.2859
17,CC(C)(CO)CCCn1cncc1-c1cnn(-c2ccccc2)c1 [CBK281922],101.357
18,Cc1nc2c([N+](=O)[O-])c3c(c([N+](=O)[O-])c2[nH]1)Nc1nonc1N3 [CBK261069],99.3213
19,COc1cc(F)cc(OC2CCNCC2)c1NC(=O)c1coc2c1C(=O)CCC2 [CBK050351T],133.647
20,COC(C)CN(C)Cc1c(C)[nH]c2ccc(F)cc12 (centres unmarked) [CBK282035],120.15
21,CC(C)Cc1ccc(S(=O)(=O)Nc2ccc3[nH]c(=O)[nH]c3c2)cc1 [CBK270131],117.465
22,CCOC(=O)C1CCCN(C(=O)Cn2cnc(-c3cccs3)cc2=O)C1 (centres unmarked) [CBK304210],148.203
23,COc1cc(Nc2cncc(-c3ccc(O)cc3)n2)c(Cl)cc1C(=O)NCC1CCCO1 (centres unmarked) [CBK126468],107.553
24,CN(C)c1cccc(Nc2ccc(/C=C/c3ccccc3)cn2)c1 [CBK036984],141.214
25,O=C(NC(=O)N1CCC2(C1)NCCc1c2[nH]c2ccccc12)c1ccccc1 (centres unmarked) [CBK046985],129.417
